Results are given in words; binding and its absence hold for the method and conditions named. Binding seen in cells or lysates may run through a third protein. Some binding calls cover weakened binding; strength is not graded here.
Target: T1, Kinectin1 (KTN1) (human (endogenous in A431 and HSC-5)) (UniProt Q86UP2)
T1 sequence: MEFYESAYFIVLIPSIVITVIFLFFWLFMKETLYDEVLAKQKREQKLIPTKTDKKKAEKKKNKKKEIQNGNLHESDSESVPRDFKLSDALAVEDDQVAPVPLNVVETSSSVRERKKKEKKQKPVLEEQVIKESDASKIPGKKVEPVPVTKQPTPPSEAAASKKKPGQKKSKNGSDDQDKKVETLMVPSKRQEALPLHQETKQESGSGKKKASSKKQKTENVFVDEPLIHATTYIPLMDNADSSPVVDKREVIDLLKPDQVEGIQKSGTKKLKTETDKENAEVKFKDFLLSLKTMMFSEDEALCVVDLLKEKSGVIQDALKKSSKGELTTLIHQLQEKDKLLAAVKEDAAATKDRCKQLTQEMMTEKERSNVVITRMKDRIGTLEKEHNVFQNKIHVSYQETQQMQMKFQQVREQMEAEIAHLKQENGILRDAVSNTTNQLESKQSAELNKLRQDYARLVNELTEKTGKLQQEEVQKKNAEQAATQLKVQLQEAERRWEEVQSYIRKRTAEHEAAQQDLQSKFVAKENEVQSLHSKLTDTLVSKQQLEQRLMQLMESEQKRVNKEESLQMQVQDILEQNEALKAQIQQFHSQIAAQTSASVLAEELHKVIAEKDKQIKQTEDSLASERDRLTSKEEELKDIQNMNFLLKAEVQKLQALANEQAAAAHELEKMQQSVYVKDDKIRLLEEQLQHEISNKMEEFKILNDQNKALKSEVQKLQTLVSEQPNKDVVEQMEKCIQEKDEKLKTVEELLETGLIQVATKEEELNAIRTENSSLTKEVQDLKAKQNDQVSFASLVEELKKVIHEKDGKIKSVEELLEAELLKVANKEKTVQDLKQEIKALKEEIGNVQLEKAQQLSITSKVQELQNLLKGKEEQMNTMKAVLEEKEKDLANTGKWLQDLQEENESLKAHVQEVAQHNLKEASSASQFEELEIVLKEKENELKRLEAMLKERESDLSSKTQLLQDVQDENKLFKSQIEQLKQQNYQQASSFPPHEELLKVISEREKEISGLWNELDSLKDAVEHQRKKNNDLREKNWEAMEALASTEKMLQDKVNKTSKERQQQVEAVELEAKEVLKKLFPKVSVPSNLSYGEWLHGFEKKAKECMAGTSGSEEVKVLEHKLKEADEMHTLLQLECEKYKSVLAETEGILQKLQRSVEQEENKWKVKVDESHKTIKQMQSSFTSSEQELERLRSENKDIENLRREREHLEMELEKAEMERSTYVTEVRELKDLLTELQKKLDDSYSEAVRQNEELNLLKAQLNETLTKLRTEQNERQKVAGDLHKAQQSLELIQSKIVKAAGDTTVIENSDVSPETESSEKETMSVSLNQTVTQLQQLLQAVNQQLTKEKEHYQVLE
Experiment: co-IP; endogenous proteins in total lysates of A431 and HSC-5 cells; IP and immunoblotting with anti-PSMA1-7, anti-ADRM1 or anti-KTN1; for PSMA1-ADRM1 the cells were transfected with siKTN1 or siNC

The chains behind the UniProt entries cited, without tags or fusion partners.
UniProt Q16186: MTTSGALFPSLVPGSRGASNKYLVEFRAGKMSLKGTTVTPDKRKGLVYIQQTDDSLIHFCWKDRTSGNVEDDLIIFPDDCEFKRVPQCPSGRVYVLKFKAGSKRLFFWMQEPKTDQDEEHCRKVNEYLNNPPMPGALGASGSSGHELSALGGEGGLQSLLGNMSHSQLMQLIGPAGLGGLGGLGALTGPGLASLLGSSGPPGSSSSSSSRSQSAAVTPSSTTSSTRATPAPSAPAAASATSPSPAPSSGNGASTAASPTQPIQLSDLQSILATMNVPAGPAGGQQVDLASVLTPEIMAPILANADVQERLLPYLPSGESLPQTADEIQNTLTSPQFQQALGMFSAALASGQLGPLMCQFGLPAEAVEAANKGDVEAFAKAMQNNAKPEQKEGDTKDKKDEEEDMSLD

- binding: binds
Substance: adhesion regulating molecule 1 (ADRM1) (from UniProt Q16186 1-407)

— publication PMC8542041
